These are yes or no findings as the source states them, for the method shown. Binding seen in cells or lysates may run through a third protein. A yes stands for co-enrichment or nearness to the bait. Other partners may have been found. Each block holds one binder with its values, some of them ahead of it.
Biological target: Scramb1-A-protA (Drosophila)
Assay: affinity purification with mass spectrometry; Scramb1-A-ProtA expressed in the larval fat body, captured from larval extract on rabbit IgG Dynabeads (2 h, 4 °C), eluted by TEV cleavage; LC/ESI-MS/MS; control: Cg-Gal4 larvae

- binding: binds
B1: Flotillin2 (protein, UniProt O61492 1-438)
chain: MGNIHTTGPNEALIVSGGCCGSTKKRTIVGGWAWAWWLVTDVQRLSLNVMTLNPMCENVETSQGVPLTVTGVAQCKIMKSSSYKQTDYHNDEADELLGTASEQFLGKSVKEIKQTILQTLEGHLRAILGTLTVEEVYKDRDQFAALVREVAAPDVGRMGIEILSFTIKDVYDDVQYLASLGKAQTAVVKRDADAGVAEANRDAGIREAECEKSAMDVKYSTDTKIEDNTRMYKLQKANFDQEINTAKAESQLAYELQAAKIRQRIRNEEIQIEVVERRKQIEIESQEVQRKDRELTGTVKLPAEAEAFRLQTLAQAKQCQTIEGARAEAERIRKIGSAEAHAIELVGKAEAERMRMKAHVYKQYGDAAIMNIVLESLPKIAAEVAAPLAKTDEIVLIGGNDNITNDVTRLVAQLPPSINALTGVDLSKVLSKIPGAKA

- binding: binds
B2: Hip14 (enzyme, UniProt Q9VUW9 1-637)
chain: MYQSACQAATTGSCVPGTGQQPDNERQSALIAQQPPTAPVEPDYSGFDIVKATQYGAIARVRELVESGWDVNQPDSETVTLLHWAAINNRRDIIRYFLEKGATVDAVGGELNATPLHWATRQGHLGAVVLLMAAGADPRIRDAEGCSCIHIAAQFAHTALVAYFIAKGVDPDLQDRGGMTALMWAAWKVCALDPVRLLLTLGANPAMVDYTHGNTALHWAILARNATAISTLVLKSKASLDVPNLRGETPLSMLESQTGAIWIGAKVMDRVKEAALTSQQRRSLLSKLRHDKRLRWWSMVACPFTAFYLAGIVFTVNTLYIIKFFLLGCLYSIFHTIGKALFDEHLMALLPLSVYLATKAWFYVTWLMYIDDAVSFTATVCFLISSLLLWVCFLKSWKGDPGIIRPTREQRFKTIIELSERGGIGFEPASFCSGCLVRRPIRSKHCSVCDRCVARFDHHCPWVGNCIGLKNHSYFMGFLWMLLIMCAWMLYGGSKYYVNQCNVRFDDFLGAMRAIGNCDAWVGWVMGNALLHMSWVILLTICQTYQVICLGMTTNERMNRGRYRHFQAKGGHSPFTRGPIQNLVDFLECSCFGLVQPKRVDWMNYYDYDAQTHQTIEKEPLLSVDCPDGMAGDHQYV

— paper PMC11335299
